Results from patent US20130078251A1 (Hoffmann-La Roche, published 2013).
Results are given in words; binding and its absence hold for the method and conditions named. Some results given as binding are weak or reduced against the parent protein; the word gives no strength.

Protein sequences, listed by entry. Tags and fused reporters are not part of them. Residues count along the entry.
UniProt Q6UVK1, residues 30-2322: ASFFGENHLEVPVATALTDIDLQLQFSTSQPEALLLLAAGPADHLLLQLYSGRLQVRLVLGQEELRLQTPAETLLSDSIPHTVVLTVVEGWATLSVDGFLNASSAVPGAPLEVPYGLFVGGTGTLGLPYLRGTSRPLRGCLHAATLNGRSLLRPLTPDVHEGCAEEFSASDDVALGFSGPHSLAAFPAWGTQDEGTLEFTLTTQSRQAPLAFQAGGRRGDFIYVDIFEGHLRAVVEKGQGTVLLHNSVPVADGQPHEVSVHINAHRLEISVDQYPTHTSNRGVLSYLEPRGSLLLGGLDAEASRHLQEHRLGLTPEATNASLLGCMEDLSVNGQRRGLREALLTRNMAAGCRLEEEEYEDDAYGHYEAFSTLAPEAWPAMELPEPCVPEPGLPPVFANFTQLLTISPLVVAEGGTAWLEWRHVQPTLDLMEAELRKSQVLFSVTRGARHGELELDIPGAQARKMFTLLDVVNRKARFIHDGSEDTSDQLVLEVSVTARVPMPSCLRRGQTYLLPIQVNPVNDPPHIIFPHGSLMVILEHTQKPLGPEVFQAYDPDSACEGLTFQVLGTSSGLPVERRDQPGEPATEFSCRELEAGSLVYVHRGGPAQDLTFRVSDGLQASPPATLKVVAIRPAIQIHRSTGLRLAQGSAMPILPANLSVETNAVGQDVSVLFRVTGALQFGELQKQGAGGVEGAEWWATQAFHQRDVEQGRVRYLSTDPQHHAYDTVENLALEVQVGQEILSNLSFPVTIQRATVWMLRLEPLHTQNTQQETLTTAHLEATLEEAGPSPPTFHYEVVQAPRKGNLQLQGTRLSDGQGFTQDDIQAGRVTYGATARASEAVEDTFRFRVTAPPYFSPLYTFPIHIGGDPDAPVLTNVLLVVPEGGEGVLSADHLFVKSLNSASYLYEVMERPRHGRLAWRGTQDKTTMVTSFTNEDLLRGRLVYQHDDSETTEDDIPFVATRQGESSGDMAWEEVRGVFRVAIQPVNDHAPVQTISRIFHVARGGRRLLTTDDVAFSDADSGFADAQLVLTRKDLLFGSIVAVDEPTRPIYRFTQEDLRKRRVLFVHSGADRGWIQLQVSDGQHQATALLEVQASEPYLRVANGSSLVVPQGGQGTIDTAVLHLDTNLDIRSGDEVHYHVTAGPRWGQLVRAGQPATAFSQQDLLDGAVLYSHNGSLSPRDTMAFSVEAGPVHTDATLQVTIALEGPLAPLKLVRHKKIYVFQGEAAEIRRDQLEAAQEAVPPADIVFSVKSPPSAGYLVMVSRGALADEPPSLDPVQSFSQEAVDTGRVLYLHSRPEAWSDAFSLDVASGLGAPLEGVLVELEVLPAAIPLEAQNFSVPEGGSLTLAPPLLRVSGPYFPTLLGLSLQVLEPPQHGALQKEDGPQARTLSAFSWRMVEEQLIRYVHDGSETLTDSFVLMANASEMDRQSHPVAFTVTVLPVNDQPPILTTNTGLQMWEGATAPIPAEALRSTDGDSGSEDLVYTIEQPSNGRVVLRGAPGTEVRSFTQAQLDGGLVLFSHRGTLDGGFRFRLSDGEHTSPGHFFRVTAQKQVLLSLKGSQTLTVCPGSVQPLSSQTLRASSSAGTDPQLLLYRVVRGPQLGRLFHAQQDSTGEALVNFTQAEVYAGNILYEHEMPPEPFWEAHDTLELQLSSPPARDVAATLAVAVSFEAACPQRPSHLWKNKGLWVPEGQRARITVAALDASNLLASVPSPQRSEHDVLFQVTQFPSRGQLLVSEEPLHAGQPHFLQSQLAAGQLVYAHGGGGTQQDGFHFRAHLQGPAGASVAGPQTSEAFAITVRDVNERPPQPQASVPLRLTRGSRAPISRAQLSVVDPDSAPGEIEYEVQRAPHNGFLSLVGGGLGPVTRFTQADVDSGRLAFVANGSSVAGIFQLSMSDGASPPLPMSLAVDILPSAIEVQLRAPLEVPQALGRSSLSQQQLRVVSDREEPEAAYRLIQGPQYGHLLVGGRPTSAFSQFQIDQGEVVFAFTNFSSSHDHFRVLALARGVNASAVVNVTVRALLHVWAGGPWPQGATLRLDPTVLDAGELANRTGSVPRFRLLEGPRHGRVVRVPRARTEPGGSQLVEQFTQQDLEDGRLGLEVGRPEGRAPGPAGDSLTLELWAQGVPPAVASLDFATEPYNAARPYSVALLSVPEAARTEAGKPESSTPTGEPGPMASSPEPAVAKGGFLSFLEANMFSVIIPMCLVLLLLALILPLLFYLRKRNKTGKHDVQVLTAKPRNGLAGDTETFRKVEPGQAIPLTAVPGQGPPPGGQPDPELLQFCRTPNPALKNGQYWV

How the values were obtained:
MCSP antigen [1] = target: MCSP antigen (UniProt Q6UVK1); assay: titration read as mean fluorescence (flow cytometry); the cells are not given
MCSP antigen [2] = target: MCSP antigen (UniProt Q6UVK1); assay: Western blot; staining of fresh frozen and fixed tissue
MCSP antigen [3] = target: MCSP antigen (UniProt Q6UVK1); assay: binding of humanized variants, FIG. 8

B1: chimeric antibody LC007 (antibody, human IgG1, kappa, V domains shown)
VH: EVQLQESGPGLVKPSQSLSLTCSVTGYSITSGYYWNWIRQFPGNKLEWMGYITYDGSNNYNPSLKNRISITRDTSKNQFFLKLNSVTTEDTATYYCADFDYWGQGTTLTVSS
VL: DIVLTQSPSSLSASLGDRVTISCSASQGIRNYLNWYQQRPDGTVKLLIYYTSSLHSGVPSRFSGSGSGTDYSLTISNLEPEDIATYYCQQYSKLPWTFGGGTKLEIKR
notes: also called LC007 antibody; chimeric LC007
MCSP antigen [1]
  binding: binds
MCSP antigen [2]
  binding: binds

B2: M4-1 ML1 (antibody, V domains shown)
VH: QVQLQESGPGLVKPSQTLSLTCTVSGYSITSGYYWNWIRQHPGKGLEWIGYITYDGSNNYNPSLKSRVTISRDTSKNQFSLKLSSVTAADTAVYYCADFDYWGQGTLVTVSS
VL: DIQMTQSPSSLSASVGDRVTITCSASQGIRNYLNWYQQKPGKAPKLLIYYTSSLHSGVPSRFSGSGSGTDFTLTISSLQPEDFATYYCQQYSKLPWTFGQGTKVEIK
MCSP antigen [1]
  binding: binds

B3: M4-3 ML1 (antibody, V domains shown)
VH: QVQLQESGPGLVKPSQTLSLTCTVSGGSITSGYYWNWIRQHPGKGLEWIGYITYDGSNNYNPSLKSRVTISRDTSKNQFSLKLSSVTAADTAVYYCADFDYWGQGTLVTVSS
VL: DIQMTQSPSSLSASVGDRVTITCSASQGIRNYLNWYQQKPGKAPKLLIYYTSSLHSGVPSRFSGSGSGTDFTLTISSLQPEDFATYYCQQYSKLPWTFGQGTKVEIK
MCSP antigen [1]
  binding: binds

B4: LC007 humanized construct M4-6 ML1 (antibody, V domains shown)
VH: QVQLQESGPGLVKPSQTLSLTCTVSGYSITSGYYWNWIRQHPGKGLEWIGYITYDGSNNYNPSLKSRVTISVDTSKNQFSLKLSSVTAADTAVYYCADFDYWGQGTLVTVSS
VL: DIQMTQSPSSLSASVGDRVTITCSASQGIRNYLNWYQQKPGKAPKLLIYYTSSLHSGVPSRFSGSGSGTDFTLTISSLQPEDFATYYCQQYSKLPWTFGQGTKVEIK
MCSP antigen [1]
  binding: binds
MCSP antigen [3]
  binding: binds

B5: M4-1 ML2 (antibody, V domains shown)
VH: QVQLQESGPGLVKPSQTLSLTCTVSGYSITSGYYWNWIRQHPGKGLEWIGYITYDGSNNYNPSLKSRVTISRDTSKNQFSLKLSSVTAADTAVYYCADFDYWGQGTLVTVSS
VL: DIQMTQSPSSLSASVGDRVTITCRASQGIRNYLNWYQQKPGKAPKLLIYYTSSLHSGVPSRFSGSGSGTDFTLTISSLQPEDFATYYCQQYSKLPWTFGQGTKVEIK
MCSP antigen [1]
  binding: binds
